Assay results taken from patent publication US20250353895A1, “METHOD FOR ANALYZING G-PROTEIN CONJUGATED RECEPTOR” (Kao Corporation, priority 2022, published 2025).

B1: TAAR1: original human trace amine-associated receptor TAAR1 (protein, listed as Homo sapiens)
chain: MMPFCHNIINISCVKNNWSNDVRASLYSLMVLIILTTLVGNLIVIVSISHFKQLHTPTNWLIHSMATVDFLLGCLVMPYSMVRSAEHCWYFGEVFCKIHTSTDIMLSSASIFHLSFISIDRYYAVCDPLRYKAKMNILVICVMIFISWSVPAVFAFGMIFLELNFKGAEEIYYKHVHCRGGCSVFFSKISGVLTFMTSFYIPGSIMLCVYYRIYLIAKEQARLISDANQKLQIGLEMKNGISQSKERKAVKTLGIVMGVFLICWCPFFICTVMDPFLHYIIPPTLNDVLIWFGYLNSTFNPMVYAFFYPWFRKALKMMLFGKIFQKDSSRCKLFLELSS
B2: TAS2R46: original human bitterness receptor TAS2R46 (protein, listed as Homo sapiens)
chain: MITFLPIIFSILIVVTFVIGNFANGFIALVNSIEWFKRQKISFADQILTALAVSRVGLLWVLVLNWYATELNPAFNSIEVRITAYNVWAVINHFSNWLATSLSIFYLLKIANFSNLIFLHLKRRVKSVVLVILLGPLLFLVCHLFVINMNQIIWTKEYEGNMTWKIKLRSAMYLSNTTVTILANLVPFTLTLISFLLLICSLCKHLKKMQLHGKGSQDPSMKVHIKALQTVTSFLLLCAIYFLSIIMSVWSFESLENKPVFMFCEAIAFSYPSTHPFILIWGNKKLKQTFLSVLWHVRYWVKGEKPSSS
B3: TAAR2: original human trace amine-associated receptor TAAR2 (protein, listed as Homo sapiens)
chain: MAVSSEQHELSHFKRTQTKKEKFNCSEYGNRSCPENERSLGVRVAMYSFMAGSIFITIFGNLAMIISISYFKQLHTPTNFLILSMAITDFLLGFTIMPYSMIRSVENCWYFGLTFCKIYYSFDLMLSITSIFHLCSVAIDRFYAICYPLLYSTKITIPVIKRLLLLCWSVPGAFAFGVVFSEAYADGIEGYDILVACSSSCPVMFNKLWGTTLFMAGFFTPGSMMVGIYGKIFAVSRKHAHAINNLRENQNNQVKKDKKAAKTLGIVIGVFLLCWFPCFFTILLDPFLNFSTPVVLFDALTWFGYFNSTCNPLIYGFFYPWFRRALKYILLGKIFSSCFHNTILCMQKESE

Test system: HEK293 cells
Test: Measurement of receptor protein level on cell membrane (flow cytometry), receptor gene co-transfected with RTP1S
Type: cell-based, human
Settings: for change in membrane expression level by the consensus design method: consensus receptor compared with original receptor, HEK293 cells, average values of three experiments; for Original Membrane expression level (%): original receptor on HEK293 cells, PE signal normalised, NC (no receptor) 0%, PC (FLAG-M2 acetylcholine receptor) 100%, average of three experiments

Row | Molecule | change in membrane expression level by the consensus design method | Original Membrane expression level (%)
1 | GPR31: original human GPR31 [reference compound] | increase | 55.21
2 | GPR65: original human GPR65 [reference compound] | increase | 39.00
3 | GPR82: original human GPR82 [reference compound] | increase | 99.43
4 | GPR88: original human GPR88 [reference compound] | increase | 7.25
5 | MrgprE: original human Mas-related G protein-coupled receptor MrgprE [reference compound] | increase | 18.59
6 | MrgprF: original human Mas-related G protein-coupled receptor MrgprF [reference compound] | increase | 95.21
7 | B1 | increase | 54.87
8 | B2 | increase | 2.83
9 | B3 | increase | 0.13
